Among the data in paper PMC6131148 are binding values, retold here.

Chains of the proteins cited; added tags and fusions are not shown.
UniProt Q86TM6: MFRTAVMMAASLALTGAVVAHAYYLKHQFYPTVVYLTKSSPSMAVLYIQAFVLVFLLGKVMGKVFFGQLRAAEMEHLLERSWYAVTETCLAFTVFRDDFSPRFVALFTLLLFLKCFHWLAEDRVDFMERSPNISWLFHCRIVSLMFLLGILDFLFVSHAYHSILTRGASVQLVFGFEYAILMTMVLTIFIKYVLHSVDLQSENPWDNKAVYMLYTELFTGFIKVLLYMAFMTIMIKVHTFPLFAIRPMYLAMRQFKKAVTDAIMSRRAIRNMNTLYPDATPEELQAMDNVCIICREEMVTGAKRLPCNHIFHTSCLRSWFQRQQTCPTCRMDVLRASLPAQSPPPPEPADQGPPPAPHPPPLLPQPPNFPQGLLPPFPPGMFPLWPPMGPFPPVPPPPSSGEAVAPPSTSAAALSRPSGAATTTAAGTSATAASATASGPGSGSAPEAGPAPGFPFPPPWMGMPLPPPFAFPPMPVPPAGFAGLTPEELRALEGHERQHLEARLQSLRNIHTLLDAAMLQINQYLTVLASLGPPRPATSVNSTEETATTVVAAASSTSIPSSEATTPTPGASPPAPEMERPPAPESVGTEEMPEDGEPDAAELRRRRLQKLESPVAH

These are yes or no findings as the source states them, for the method shown. Binding seen in cells or lysates may run through a third protein. Some binding calls cover weakened binding; strength is not graded here. For part of these data: Tags and fused reporters may be left off the sequences shown.

B1: Mouse ENTPD5 in pCMV-Myc, transfected (enzyme, UniProt Q9WUZ9 25-427)
chain: QQTWFEGVFLSSMCPINVSAGTFYGIMFDAGSTGTRIHVYTFVQKTAGQLPFLEGEIFDSVKPGLSAFVDQPKQGAETVQELLEVAKDSIPRSHWERTPVVLKATAGLRLLPEQKAQALLLEVEEIFKNSPFLVPDGSVSIMDGSYEGILAWVTVNFLTGQLHGRGQETVGTLDLGGASTQITFLPQFEKTLEQTPRGYLTSFEMFNSTFKLYTHSYLGFGLKAARLATLGALEAKGTDGHTFRSACLPRWLEAEWIFGGVKYQYGGNQEGEMGFEPCYAEVLRVVQGKLHQPEEVRGSAFYAFSYYYDRAADTHLIDYEKGGVLKVEDFERKAREVCDNLGSFSSGSPFLCMDLTYITALLKDGFGFADGTLLQLTKKVNNIETGWALGATFHLLQSLGITS
B2: RMND1, transfected (protein, UniProt Q8CI78 6-450)
chain: LHTLASLHSISAKAHQCQRLTWLTLRPLRKSESTTCHNGLTIQQHLHSFFPSITADSLNKPEILEMSRITSDTSRLFPLNAVHWLDGKEHWPSMHPFGTHRSMTHKPNLLCSKWFIKAVKRHHSSVSNEALVPKQDLPQIKRPLKASRTRQPSRTNLPDLSVNEDLMQCTAFATADEYHLGSLSQELVSCGYVEVTSLPRDAANILVMGVESSAKEGDPGTIFLFREGAAVFWNVKEKTMKHVMQVLERHETQPYEVALVHWENEELNYIKTEGQSKLHRGEIKLNSELDLDDAILEKFAFSNALCLSVKLAIWEATLDKFIESIQSIPEALKAGKKVKLSHKEVMQKMGELFALRHRINLSSDFLITPDFYWDRANLEELYDKTCQFLSITRRVKVMNEKLQHCMELTDLMRNHLNEKRALRLEWMIVILITIEVMFELGRVFF
B3: Mouse HSD17B4 in pCMV-Myc, transfected (enzyme, UniProt P51660 1-735)
chain: MASPLRFDGRVVLVTGAGGGLGRAYALAFAERGALVIVNDLGGDFKGIGKGSSAADKVVAEIRRKGGKAVANYDSVEAGEKLVKTALDTFGRIDVVVNNAGILRDRSFSRISDEDWDIIHRVHLRGSFQVTRAAWDHMKKQNYGRILMTSSASGIYGNFGQANYSAAKLGILGLCNTLAIEGRKNNIHCNTIAPNAGSRMTETVLPEDLVEALKPEYVAPLVLWLCHESCEENGGLFEVGAGWIGKLRWERTLGAIVRKRNQPMTPEAVRDNWEKICDFSNASKPQTIQESTGGIVEVLHKVDSEGISPNRTSHAAPAATSGFVGAVGHKLPSFSSSYTELQSIMYALGVGASVKNPKDLKFVYEGSADFSCLPTFGVIVAQKSMMNGGLAEVPGLSFNFAKALHGEQYLELYKPLPRSGELKCEAVIADILDKGSGVVIVMDVYSYSGKELICYNQFSVFVVGSGGFGGKRTSEKLKAAVAVPNRPPDAVLRDATSLNQAALYRLSGDWNPLHIDPDFASVAGFEKPILHGLCTFGFSARHVLQQFADNDVSRFKAIKVRFAKPVYPGQTLQTEMWKEGNRIHFQTKVHETGDVVISNAYVDLVPASGVSTQTPSEGGELQSALVFGEIGRRLKSVGREVVKKANAVFEWHITKGGTVAAKWTIDLKSGSGEVYQGPAKGSADVTIIISDEDFMEVVFGKLDPQKAFFSGRLKARGNIMLSQKLQMILKDYAKL
B4: Mouse CPT2 in pCMV-Myc, transfected (enzyme, UniProt P52825 26-658)
chain: SAVSGPAEYLQHSIVPTMHYQDSLPRLPIPKLEDTMKRYLSAQKPLLNDSQFRKTEVLCKDFENGIGKELHAHLLAQDKQNKHTSYISGPWFDMYLTARDSVVLNFNPFMAFNPDPKSEYNDQLTRATNLTVSAVRFLKTLRAGLLEPEVFHLNPARSDTDAFKRLIRFVPSSLSWYGAYLVNAYPLDMSQYFRLFNSTRIPKPSRDELFTDTKARHLLVLRKGHFYVFDVLDQDGNIVNPSEIQAHLKYILSDSSPVPEFPLAYLTSENRDVWAELRQKLIHGGNEETLRKVDSAVFCLCLDDFPMKDLVHLSHTMLHGDGTNRWFDKSFNLIVAKDGTAAVHFEHAWGDGVAVLRFFNEVFRDSTQTPAIAPQSQPAATDSSVSVQKLSFKLSSALKAGVTAAKEKFDATMKTLTIDAIQFQRGGKEFLKKKKLSPDAVAQLAFQMAFLRQYGQTVATYESCSTAAFKHGRTETIRPASIFTKRCSEAFVREPSKHSVGELQHMMAECSKYHGQLTKEAAMGQGFDRHLFALRYLAAARGVTLPELYQDPAYQRINHNILSTSTLSSPAVSLGGFAPVVPDGFGIAYAVHDDWIGCNVSSYSGRNAREFLHCVQKCLEDMFDALEGKAIKT
B5: Mouse ATP5D in pCMV-Myc, transfected (protein, UniProt Q9D3D9 23-168)
chain: AEAAAAPAPAAGPGQMSFTFASPTQVFFDSANVKQVDVPTLTGAFGILASHVPTLQVLRPGLVVVHTEDGTTTKYFVSSGSVTVNADSSVQLLAEEAVTLDMLDLGAARANLEKAQSELSGAADEAARAEIQIRIEANEALVKALE
B6: ENTPD5, endogenous (co-IP of Fig. 3g; cells or tissue not stated) (enzyme, UniProt O75356 25-428)
chain: NQQTWFEGIFLSSMCPINVSASTLYGIMFDAGSTGTRIHVYTFVQKMPGQLPILEGEVFDSVKPGLSAFVDQPKQGAETVQGLLEVAKDSIPRSHWKKTPVVLKATAGLRLLPEHKAKALLFEVKEIFRKSPFLVPKGSVSIMDGSDEGILAWVTVNFLTGQLHGHRQETVGTLDLGGASTQITFLPQFEKTLEQTPRGYLTSFEMFNSTYKLYTHSYLGFGLKAARLATLGALETEGTDGHTFRSACLPRWLEAEWIFGGVKYQYGGNQEGEVGFEPCYAEVLRVVRGKLHQPEEVQRGSFYAFSYYYDRAVDTDMIDYEKGGILKVEDFERKAREVCDNLENFTSGSPFLCMDLSYITALLKDGFGFADSTVLQLTKKVNNIETGWALGATFHLLQSLGISH
B7: HSD17B4, endogenous (co-IP of Fig. 3g; cells or tissue not stated) (enzyme, UniProt P51659 1-736)
chain: MGSPLRFDGRVVLVTGAGAGLGRAYALAFAERGALVVVNDLGGDFKGVGKGSLAADKVVEEIRRRGGKAVANYDSVEEGEKVVKTALDAFGRIDVVVNNAGILRDRSFARISDEDWDIIHRVHLRGSFQVTRAAWEHMKKQKYGRIIMTSSASGIYGNFGQANYSAAKLGLLGLANSLAIEGRKSNIHCNTIAPNAGSRMTQTVMPEDLVEALKPEYVAPLVLWLCHESCEENGGLFEVGAGWIGKLRWERTLGAIVRQKNHPMTPEAVKANWKKICDFENASKPQSIQESTGSIIEVLSKIDSEGGVSANHTSRATSTATSGFAGAIGQKLPPFSYAYTELEAIMYALGVGASIKDPKDLKFIYEGSSDFSCLPTFGVIIGQKSMMGGGLAEIPGLSINFAKVLHGEQYLELYKPLPRAGKLKCEAVVADVLDKGSGVVIIMDVYSYSEKELICHNQFSLFLVGSGGFGGKRTSDKVKVAVAIPNRPPDAVLTDTTSLNQAALYRLSGDWNPLHIDPNFASLAGFDKPILHGLCTFGFSARRVLQQFADNDVSRFKAIKARFAKPVYPGQTLQTEMWKEGNRIHFQTKVQETGDIVISNAYVDLAPTSGTSAKTPSEGGKLQSTFVFEEIGRRLKDIGPEVVKKVNAVFEWHITKGGNIGAKWTIDLKSGSGKVYQGPAKGAADTTIILSDEDFMEVVLGKLDPQKAFFSGRLKARGNIMLSQKLQMILKDYAKL
B8: RMND1, endogenous (co-IP of Fig. 3g; cells or tissue not stated) (protein, UniProt Q9NWS8 13-449)
chain: HHILSKAHQCRRIGHLMLKPLKEFENTTCSTLTIRQSLDLFLPDKTASGLNKSQILEMNQKKSDTSMLSPLNAARCQDEKAHLPTMKSFGTHRRVTHKPNLLGSKWFIKILKRHFSSVSTETFVPKQDFPQVKRPLKASRTRQPSRTNLPVLSVNEDLMHCTAFATADEYHLGNLSQDLASHGYVEVTSLPRDAANILVMGVENSAKEGDPGTIFFFREGAAVFWNVKDKTMKHVMKVLEKHEIQPYEIALVHWENEELNYIKIEGQSKLHRGEIKLNSELDLDDAILEKFAFSNALCLSVKLAIWEASLDKFIESIQSIPEALKAGKKVKLSHEEVMQKIGELFALRHRINLSSDFLITPDFYWDRENLEGLYDKTCQFLSIGRRVKVMNEKLQHCMELTDLMRNHLNEKRALRLEWMIVILITIEVMFELGRVFF
B9: CPT2, endogenous (co-IP of Fig. 3g; cells or tissue not stated) (enzyme, UniProt P23786 26-658)
chain: SAGSGPGQYLQRSIVPTMHYQDSLPRLPIPKLEDTIRRYLSAQKPLLNDGQFRKTEQFCKSFENGIGKELHEQLVALDKQNKHTSYISGPWFDMYLSARDSVVLNFNPFMAFNPDPKSEYNDQLTRATNMTVSAIRFLKTLRAGLLEPEVFHLNPAKSDTITFKRLIRFVPSSLSWYGAYLVNAYPLDMSQYFRLFNSTRLPKPSRDELFTDDKARHLLVLRKGNFYIFDVLDQDGNIVSPSEIQAHLKYILSDSSPAPEFPLAYLTSENRDIWAELRQKLMSSGNEESLRKVDSAVFCLCLDDFPIKDLVHLSHNMLHGDGTNRWFDKSFNLIIAKDGSTAVHFEHSWGDGVAVLRFFNEVFKDSTQTPAVTPQSQPATTDSTVTVQKLNFELTDALKTGITAAKEKFDATMKTLTIDCVQFQRGGKEFLKKQKLSPDAVAQLAFQMAFLRQYGQTVATYESCSTAAFKHGRTETIRPASVYTKRCSEAFVREPSRHSAGELQQMMVECSKYHGQLTKEAAMGQGFDRHLFALRHLAAAKGIILPELYLDPAYGQINHNVLSTSTLSSPAVNLGGFAPVVSDGFGVGYAVHDNWIGCNVSSYPGRNAREFLQCVEKALEDMFDALEGKSIKS

In the first assay the target is HRD1, full-length expression plasmid, transfected (UniProt Q86TM6). As to the kind of experiment: co-IP; transiently transfected HEK293 cells, lysed 24 h after transfection; immunoprecipitation with protein-G sepharose and immunoblotting. Background: A western blot detects proteins with antibodies after separation by electrophoresis.
B1: the binding result is recorded as “binds”.
The same measure, in the same setting: next, B2: “binds”; B3: “binds”.
As to B4, the binding result is given as “binds”.
Still for that read-out and setting: as for B5, the entry is “binds”.

For the next assay, the target named is HRD1, endogenous (co-IP of Fig. 3g; cells or tissue not stated) (UniProt Q86TM6). As to the kind of experiment: co-IP; endogenous proteins; anti-HRD1 immunoprecipitates against normal rabbit IgG controls, immunoblotting; cells or tissue not stated.
With B6, the binding result was “binds”.
The same measure, in the same setting: next, B7: “binds”; B8: “binds”.
With B9, the binding result is recorded as “binds”.
